The nature of this test: qHTS Assay to Find Inhibitors of Chronic Active B-Cell Receptor Signaling. Particulars: ABC-DLBCL IkBa-CBG/CBR reporter, luminescence ratio (green luciferase fused to IkBa over red control in TMD8 lymphoma cells), 4 h. Summed up: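 TMD8 ABC-DLBCL cells carrying doxycycline-inducible green luciferase fused to IkappaBalpha plus unfused red luciferase were exposed to compounds (up to 46 uM) for 4 hrs at 37C. Activity came from the overlap-corrected green/red luminescence ratio.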

[1] abbreviates: measured here: CBR red luminescence, cell number.
The mark [2] stands for this setting: measured here: IkBa-CBG green luminescence.

This note sets out measurements from PubChem BioAssay AID493014 (National Center for Advancing Translational Sciences (NCATS), 2011).

This is one part of the list. These are further read-outs of the screen, such as a control signal, another cell line or another target. No call is given for them. Compounds called inactive in the main read-out are mostly missing here. Potencies come from curve fits of mixed quality, noted in brackets.

For `O=C(O)COc1ccc(NC(=O)c2ccc3c(c2)C(=O)N(Cc2ccccc2)C3=O)cc1`, the AC50 under setting [1] was 0.562 µM [falling, full curve, poor fit].
Take `COc1ccc(S(=O)(=O)Nc2c3ccccc3nc(=O)n2-c2ccccc2)cc1`: the concentration at half-maximal activity (AC50) under setting [1] was 9.2 µM [rising, partial curve, poor fit].
Still for that read-out and setting: the figure for `COc1ccccc1NC(=O)Nc1nnc(C(C)C)s1` is 0.58 µM [rising, full curve].
On the same count and under the same terms, the figure for `O=C(NCCC1=CCCCC1)C1CCN(S(=O)(=O)c2ccc(Br)s2)CC1` is 25.9 µM [rising, single point]; for `CN(C)CCCN(C(=O)CCc1ccccc1)c1nc2c(F)cccc2s1` it is 16.4 µM [falling, partial curve].
On the same count and under the same terms, in the case of `CCn1c(-c2ccc(F)cc2)cnc1SCC(=O)N1CCCCC1C` (configuration not stated) it was 14.6 µM [rising, partial curve, poor fit]; in that of `OC(COC(c1ccc(Cl)cc1)c1ccc(Cl)cc1)CN1CCc2ccccc2C1` (configuration not stated), 29.1 µM [falling, single point]; in that of `COc1ccccc1-n1cnc2c(c1=O)c1nc3ccccc3nc1n2-c1ccc(C)c(C)c1`, 0.58 µM [falling, full curve, poor fit].
In the case of `Nc1ccccc1SCC(O)Cn1ccc2ccccc21` (configuration not stated), the concentration at half-maximal activity (AC50) under setting [1] was 4.47 µM [rising, partial curve, poor fit].
`O=C(Nc1ccc2c(c1)C(=O)N(c1ccccc1)C2=O)C1CCCO1` (configuration not stated): the AC50 under setting [2] was 0.58 µM [rising, partial curve, poor fit].
As to `CCOc1ccccc1CN1CCN(Cc2cc3ccccc3[nH]2)CC1CCO` (configuration not stated), under setting [1], the concentration at half-maximal activity (AC50) was 10 µM [falling, partial curve].
The same measure, in the same setting: the figure for `Cc1ccc(NCCC(=O)c2ccc(Cl)c(Cl)c2)cc1` is 1.41 µM [falling, full curve, poor fit].
On to `CSc1nnc(-c2ccccc2)o1`, for which the AC50 under setting [1] is 14.1 µM [rising, single point].
Turning to `CC(=O)N(CCC1(c2ccc(C)cc2)CCOC(C(C)C)C1)Cc1ccco1` (configuration not stated), the AC50 is, setting by setting: under setting [1], 11.2 µM [falling, single point]; under setting [2], 14.1 µM [rising, partial curve, poor fit].
As for `O=C(Nc1nc(-c2ccc(-c3ccccc3)cc2)cs1)c1cnccn1`, the concentration at half-maximal activity (AC50) under setting [1] is 0.517 µM [falling, partial curve, poor fit].
On the same count and under the same terms, in the case of `O=C(Nc1ccc(OC(F)(F)F)cc1)Oc1ccccc1N1CCCCC1` it was 3.55 µM [falling, full curve]; in that of `Clc1ccccc1CN1CCN(CCCc2ccccc2)CC1`, 35.5 µM [rising, single point]; in that of `Cc1ccc(C(=O)NNC2=NC(C)(C)Cc3ccccc32)cc1`, 11.2 µM [rising, single point].
`CC(C)(C)c1ccc(NC(=O)CSc2nnc(-c3n[nH]c4ccccc34)o2)cc1`: the AC50 under setting [1] is 11.6 µM [falling, partial curve].
Consider `O=C(O)Cc1ccc(S(=O)(=O)Nc2ccccc2C(=O)O)cc1`, for which the half-maximal activity concentration (AC50) under setting [1] was 6.31 µM [falling, single point].
On the same count and under the same terms, the figure for `CN(Cc1nc(-c2cccs2)no1)CC1(N2CCOCC2)CCCCC1` is 0.562 µM [rising, full curve]; for `Cc1ccccc1-c1nnc(-c2ccc(Br)cc2)o1` it is 3.55 µM [rising, full curve].
As to `CCCn1c(N)c(C(=O)CSc2n[nH]c(-c3ccc(C)cc3)n2)c(=O)[nH]c1=O`, the half-maximal activity concentration (AC50) under setting [1] was 8.2 µM [rising, partial curve].
The same measure, in the same setting: the figure for `CCOC(=O)C1=c2s/c(=C\c3cccnc3)c(=O)n2C(N)=C(C(=O)OC)C1c1cccnc1` (configuration not stated) is 0.13 µM [rising, full curve, poor fit].
Same read-out and setting: in the case of `CCNC(=O)NC(=O)COC(=O)CCCc1nc2ccccc2s1` it was 15.8 µM [rising, partial curve, poor fit]; in that of `OC(CN1CCN(c2ccccc2F)CC1)c1ccc(F)cc1` (configuration not stated), 10 µM [rising, partial curve].
Same read-out and setting: the figure for `Cc1nc2c(ccc3nc(NC(=O)c4ccc(S(=O)(=O)N(C)C)cc4)sc32)s1` is 20 µM [falling, single point].
With `COc1cc(OC)c(OC)cc1/C=N/NC(=S)NCC1CCCO1` (configuration not stated), the concentration at half-maximal activity (AC50) under setting [1] is 2.59 µM [falling, full curve].
Still for that read-out and setting: the figure for `C=CCn1cnc2c(nnn2-c2ccc(Cl)cc2)c1=O` is 2.82 µM [rising, partial curve]; for `CCCC[n+]1c2ccccc2cc2ccccc21` it is 35.5 µM [falling, single point].
Regarding `COc1cccc(/C=N/NC(=S)Nc2cccc(C(=O)O)c2)c1`, the concentration at half-maximal activity (AC50) under setting [1] is 10 µM [falling, partial curve].
Still for that read-out and setting: in the case of `COC(=O)c1cc(NC(=O)Nc2ccccc2OC)cc(C(=O)OC)c1` it was 18.4 µM [falling, single point]; in that of `COc1cccc(OCCOc2ccc(/C=C3\C(=N)N4N=C(S(C)(=O)=O)SC4=NC3=O)cc2OC)c1`, 0.1 µM [rising, full curve, poor fit].
On to `Nc1nc(N)c2ncc(C(=O)CCc3ccccc3)nc2n1`, for which the half-maximal activity concentration (AC50) under setting [1] is 35.5 µM [falling, single point].
Regarding `Nc1nc(-c2ccccc2)cn1/N=C/c1ccccc1`, the AC50 under setting [1] is 12.6 µM [falling, partial curve, poor fit].
With `CC(=O)c1cc(C#N)c(SCc2ccccc2)nc1C`, the AC50 was 18.4 µM [rising, partial curve] under setting [1] and 16.4 µM [falling, partial curve, poor fit] under setting [2].
Regarding `O=C(N/N=C/c1ccc2c(c1)OCO2)c1ccc(NS(=O)(=O)c2cccs2)cc1`, the half-maximal activity concentration (AC50) under setting [1] is 8.91 µM [falling, partial curve, poor fit].
Regarding `COc1ccccc1OC(=O)CCc1nc2ccccc2s1`, the AC50 under setting [1] is 17.8 µM [falling, single point].
With `CCN(CC)CCNC(=O)C1(O)c2cc(Br)ccc2NC(=O)N1c1ccc(Cl)cc1` (configuration not stated), under setting [1], the AC50 was 6.31 µM [rising, single point].
Still for that read-out and setting: the figure for `CCOc1cc(NS(=O)(=O)c2ccccc2)c(OCC)cc1NC(=O)c1ccco1` is 0.146 µM [falling, full curve, poor fit].
On the same count and under the same terms, the figure for `Cc1cccc(CCNC(=O)CCc2nc(-c3ccccc3F)no2)c1` is 4.11 µM [falling, partial curve, poor fit]; for `Cc1ccccc1C(=O)Nc1ccc(N2CCCC2)cc1` it is 10 µM [falling, partial curve].
On the same count and under the same terms, in the case of `COc1cc(/C=C/C(=O)NC(=O)c2ccccc2O)ccc1OC(C)=O` it was 1.41 µM [falling, full curve, poor fit]; in that of `Cc1ccc(/C=C2/NC(=O)N(c3ccccc3)C2=O)o1`, 7.94 µM [falling, partial curve].
On to `COc1ccc(-c2nc(C=O)cs2)cc1`, for which the AC50 under setting [1] was 25.1 µM [falling, single point].
Take `Cc1nc(-c2cccc(S(=O)(=O)N3CCCCCC3)c2)cs1`: the AC50 under setting [1] is 18.4 µM [falling, partial curve, poor fit].
As to `Cc1ccc(-n2cnn(-c3ccc([N+](=O)[O-])cc3[N+](=O)[O-])c2=O)cc1`, the AC50 under setting [1] is 10 µM [rising, partial curve, poor fit].
Same read-out and setting: the figure for `COC(=O)N1c2ccccc2C=Cc2ccccc21` is 17.8 µM [falling, single point].
In the case of `CCOc1ccc(-c2nnn(CCC(=O)O)n2)cc1OC`, the concentration at half-maximal activity (AC50) under setting [1] was 13 µM [falling, partial curve, poor fit].
With `COc1ccc(/C(C)=N/NC(=S)NCCc2ccccc2)cc1`, the half-maximal activity concentration (AC50) was 17.8 µM [falling, partial curve] under setting [1] and 3.55 µM [falling, single point] under setting [2].
`O=C(NC1CCCCC1)N(Cc1cc2cc3c(cc2[nH]c1=O)OCCO3)C1CCCCC1`: the concentration at half-maximal activity (AC50) under setting [1] was 6.51 µM [falling, single point].
On the same count and under the same terms, in the case of `Cc1ccc(OCCNC(=O)CNC(=O)c2ccc3c(c2)OCO3)cc1` it was 32.6 µM [rising, partial curve, poor fit]; in that of `COc1cccc(C(=O)Nc2cc(NC(=O)c3ccco3)ccc2OC)c1`, 4.61 µM [rising, single point].
On to `Cc1nn(CCCC(=O)Nc2cnn(Cc3ccc(F)cc3)c2)c(C)c1[N+](=O)[O-]`, for which the half-maximal activity concentration (AC50) under setting [1] is 0.1 µM [rising, full curve, poor fit].
The same measure, in the same setting: the figure for `c1ccc(-c2nnc3ccc(N4CCC5(CC4)OCCO5)nn23)cc1` is 15.8 µM [falling, single point]; for `CC(C)(C)C(=O)NCCCc1nc2ccccc2n1CCCOc1ccc(Cl)cc1` it is 35.5 µM [falling, single point].
As to `Cc1ccc2nc(Nc3ccc4[nH]c(=O)[nH]c4c3)c(-n3nc(C)cc3C)nc2c1`, the AC50 under setting [2] was 0.731 µM [rising, full curve, poor fit].
Take `O=C(CN1C(=O)NC2(CCCCCC2)C1=O)c1ccc2c(c1)OCCO2`: under setting [1], the AC50 is 0.082 µM [rising, full curve, poor fit].
For the compound `CCOc1ccc(S(=O)(=O)Nc2ccc(F)cc2)c(C)c1C`, under setting [1], the concentration at half-maximal activity (AC50) was 29.1 µM [falling, single point].
Same read-out and setting: the figure for `COc1ccc(NS(=O)(=O)c2cc(NC(=O)c3cncc(Br)c3)ccc2OC)cc1` is 29.1 µM [falling, single point].
With `O=C(Nc1nc(-c2ccc(F)cc2)cs1)C1CCN(C(=O)c2ccc(F)cc2)CC1`, the concentration at half-maximal activity (AC50) under setting [1] is 23.1 µM [falling, partial curve].
For the compound `CCN(CC)S(=O)(=O)c1ccc(/C=C/C(=O)NC2CCCCC2)cc1`, under setting [1], the AC50 is 5.01 µM [rising, partial curve, poor fit].
With `O=c1c2c3c(sc2nc2n1CCCCC2)CCC3`, under setting [1], the AC50 was 0.517 µM [falling, partial curve, poor fit].
Consider `O=C(O)CNC(=O)c1ccc(S(=O)(=O)N2CCOCC2)cc1`, for which the AC50 under setting [1] is 0.461 µM [rising, full curve, poor fit].
